Consider 1 substance from PMC4154131, “Molecular pathogenesis of Spondylocheirodysplastic Ehlers-Danlos syndrome caused by mutant ZIP13 proteins” (EMBO Molecular Medicine, 2014).

For assay [1], the target named is T1, N-terminally 3xFLAG-tagged wild-type ZIP13 (human) (UniProt Q96H72).
T1 sequence: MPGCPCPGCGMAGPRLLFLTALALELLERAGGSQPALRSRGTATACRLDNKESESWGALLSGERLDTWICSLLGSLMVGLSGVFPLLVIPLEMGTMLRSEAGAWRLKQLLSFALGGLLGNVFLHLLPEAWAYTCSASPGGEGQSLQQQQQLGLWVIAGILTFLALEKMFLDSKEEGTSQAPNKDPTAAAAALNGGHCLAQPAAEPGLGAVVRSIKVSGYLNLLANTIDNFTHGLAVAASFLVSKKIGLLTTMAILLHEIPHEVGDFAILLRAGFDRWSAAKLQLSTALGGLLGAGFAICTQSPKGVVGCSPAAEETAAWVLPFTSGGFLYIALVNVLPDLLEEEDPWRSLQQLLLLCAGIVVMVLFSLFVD
Description: co-IP; lysates of 293T cells transfected with FLAG- or V5-tagged ZIP13, 1% NP-40 lysis buffer; immunoprecipitation with anti-FLAG or anti-V5 antibody and protein G; endogenous VCP detected by Western blot with anti-VCP.

Assay [2] addresses T2, C-terminally V5 epitope-tagged wild-type ZIP13 (human) (UniProt Q96H72).
T2 sequence: T1 sequence
The description is as above.

These are yes or no findings as the source states them, for the method shown. Binding seen in cells or lysates may run through a third protein. Some results given as binding are weak or reduced against the parent protein; the word gives no strength. Tags and fused reporters may be left off the sequences shown.

For the substance “valosin-containing protein (VCP) (from UniProt P55072 1-806)”, the binding entry in assay [1] and in assay [2] was “binds” throughout.
